Measured values from the supplement of paper PMC7411640.
Structures can show the parent of a compound that is named as a salt. Some of the results follow. Repeats in this data set agree poorly, so a single value says little.

What follows are compounds tested on MDA-MB-468 (assay: phospho-S6 immunofluorescence (DAPI-normalised), per-plate z-score; higher = higher phospho-S6 signal (less pathway suppression)). Conditions: compound 1 µM; co-treatment: lapatinib 1 uM; 24 h.
Experimental: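 GPCR-targeted compound library (MedChemExpress HY-L006) tested on MDA-MB-468 PTEN-null TNBC cells in 384-well plates at 0.1, 1 or 10 uM, combined with vehicle, GDC0941 450 nM or lapatinib 1 uM, for 24 h. Phospho-S6 (S240/244) immunofluorescence normalised to DAPI and expressed as a per-plate z-score; values are the mean of biological triplicates.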
CN1CCN2c3c(cccc31)[C@@H]1CN(CCCC(=O)c3ccc(F)cc3)CC[C@@H]12 [lumateperone (Tosylate)] was tested, and the “phospho-S6 immunofluorescence (z-score)” value was -7.97.
CN(C)CCCN1c2ccccc2Sc2ccc(C(F)(F)F)cc21 [Triflupromazine (hydrochloride)] was tested, and the “phospho-S6 immunofluorescence (z-score)” value was 0.1.
In the case of COc1cc2nc(N3CCN(C(=O)C4COc5ccccc5O4)CC3)nc(N)c2cc1OC (stereo not drawn) [Doxazosin (mesylate)], the “phospho-S6 immunofluorescence (z-score)” value is reported as -1.72.
In the case of CSc1ccc2c(c1)N(CCC1CCCCN1C)c1ccccc1S2 (stereo not drawn) [Thioridazine (hydrochloride)], the “phospho-S6 immunofluorescence (z-score)” value is reported as -0.06.
For O=C(O)COc1cccc(CN(Cc2ccc(-n3cccn3)cc2)S(=O)(=O)c2cccnc2)c1 [Taprenepag], the “phospho-S6 immunofluorescence (z-score)” value was 0.33.
Cc1nn(C)c2c1C(c1ccc(C(F)(F)F)cc1)C(C#N)=C(N)O2 (stereo not drawn) was tested, and the “phospho-S6 immunofluorescence (z-score)” value was 0.19.
With OCCOCCN1CCN(C2=Nc3ccccc3Sc3ccccc32)CC1 [Quetiapine] the “phospho-S6 immunofluorescence (z-score)” value was 1.13.
In the case of N=C(N)NCCC[C@H](NC(=O)[C@H](Cc1ccccc1)NC(=O)[C@@H]1CCCN1C(=O)[C@H](CO)NC(=O)[C@H](Cc1ccccc1)NC(=O)CNC(=O)[C@@H]1CCCN1C(=O)[C@@H]1CCCN1C(=O)[C@@H](N)CCCNC(=N)N)C(=O)O [Bradykinin], the “phospho-S6 immunofluorescence (z-score)” value is reported as 0.87.
